Source: paper PMC3532209
No constants are given. Whether binding was seen depends on the method and setting. In cells and extracts the contact can be indirect. Some results given as binding are weak or reduced against the parent protein; the word gives no strength. Sequences can lack the tags named with a protein. Each block holds one binder with its values, some of them ahead of it.

The chains behind the UniProt entries cited, without tags or fusion partners.
UniProt P04147: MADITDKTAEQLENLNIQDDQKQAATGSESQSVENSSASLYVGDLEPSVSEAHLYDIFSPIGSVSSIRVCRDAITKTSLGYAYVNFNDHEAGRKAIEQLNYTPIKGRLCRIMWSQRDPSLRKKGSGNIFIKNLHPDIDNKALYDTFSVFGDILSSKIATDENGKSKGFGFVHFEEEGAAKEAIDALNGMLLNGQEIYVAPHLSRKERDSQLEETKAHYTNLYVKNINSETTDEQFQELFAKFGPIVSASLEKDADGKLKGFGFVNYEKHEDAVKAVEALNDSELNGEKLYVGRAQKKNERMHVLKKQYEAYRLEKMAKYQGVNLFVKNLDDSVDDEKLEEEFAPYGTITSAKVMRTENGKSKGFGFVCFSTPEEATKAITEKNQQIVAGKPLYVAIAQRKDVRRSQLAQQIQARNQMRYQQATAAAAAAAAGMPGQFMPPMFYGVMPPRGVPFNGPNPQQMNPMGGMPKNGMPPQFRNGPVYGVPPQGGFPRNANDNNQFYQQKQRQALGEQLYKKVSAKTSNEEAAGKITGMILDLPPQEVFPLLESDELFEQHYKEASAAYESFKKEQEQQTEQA

Experiments:
[1] = molecular target: GST-tagged Pab1 (S. cerevisiae) (UniProt P04147); assay: pull-down; GST fusion and Myc-tagged Mdy2 variant coexpressed in yeast (16 h in SRG medium); whole cell extract with Glutathione Sepharose 4B, 2 h at 4°C, four washes in E-buffer (20 mM HEPES pH 7.5, 150 mM NaCl, 5 mM EDTA, 0.1% Triton-X-100, 10% glycerol); Western blot with anti-Myc
[2] = molecular target: T1, GST-tagged Sgt2 (S. cerevisiae) (UniProt Q12118); assay: as above
T1 sequence: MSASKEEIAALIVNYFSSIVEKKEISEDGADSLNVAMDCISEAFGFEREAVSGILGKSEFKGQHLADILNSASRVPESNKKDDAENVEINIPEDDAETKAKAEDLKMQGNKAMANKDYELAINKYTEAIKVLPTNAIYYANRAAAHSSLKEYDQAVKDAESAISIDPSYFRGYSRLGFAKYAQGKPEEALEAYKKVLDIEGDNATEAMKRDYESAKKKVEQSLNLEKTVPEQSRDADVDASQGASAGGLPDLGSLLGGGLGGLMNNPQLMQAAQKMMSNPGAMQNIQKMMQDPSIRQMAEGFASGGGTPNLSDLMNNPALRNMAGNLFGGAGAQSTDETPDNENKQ

binding [1]: binds | binding [2]: binds
B1: Myc-tagged Mdy2 (protein, UniProt Q12285 1-212)
chain: MSTSASGPEHEFVSKFLTLATLTEPKLPKSYTKPLKDVTNLGVPLPTLKYKYKQNRAKKLKLHQDQQGQDNAAVHLTLKKIQAPKFSIEHDFSPSDTILQIKQHLISEEKASHISEIKLLLKGKVLHDNLFLSDLKVTPANSTITVMIKPNPTISKEPEAEKSTNSPAPAPPQELTVPWDDIEALLKNNFENDQAAVRQVMERLQKGWSLAK

binding [2]: binds
B2: Myc-tagged Mdy2-ΔNLS (protein, UniProt Q12285)
chain: MSTSASGPEHEFVSKFLTLATLTEPKLPKSYTKPLKDVTNLGVPLPTLLHQDQQGQDNAAVHLTLKKIQAPKFSIEHDFSPSDTILQIKQHLISEEKASHISEIKLLLKGKVLHDNLFLSDLKVTPANSTITVMIKPNPTISKEPEAEKSTNSPAPAPPQELTVPWDDIEALLKNNFENDQAAVRQVMERLQKGWSLAK

binding [2]: no binding
B3: Myc-tagged Mdy2-ΔNES (protein, UniProt Q12285)
chain: MSTSASGPEHEFVSKFLTLATLTEPKLPKSYTKPLKDVTNLGVPLPTLKYKYKQNRAKKLKLHQDQQGQDNAAVHLTLKKIQAPKFSIEHDFSPSDTILQIKQHLISEEKASHISEIGKVLHDNLFLSDLKVTPANSTITVMIKPNPTISKEPEAEKSTNSPAPAPPQELTVPWDDIEALLKNNFENDQAAVRQVMERLQKGWSLAK
